Experimental data: PubChem BioAssay AID686943 (Drosophila RNAi Screening Center, 2013)
The screen tested about 23,000 reagents; this is a random part of those that have a named target and a result. 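Extra replicates exist only for a retested subset of genes; insulin dose and duration not given; both raised and lowered dpERK matter.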 A plus sign joins genes that one reagent is predicted to hit. Not all columns of the deposit are shown. Reagent sequences are not shown. The record does not give: the amount of reagent, the time to read-out.

Assay: 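Knockdowns that increase or decrease active ERK after insulin receptor stimulation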 (primary screen)
Cells: Drosophila S2R+ haemocyte-like cells expressing YFP-tagged ERK (Rolled)
Reagent: long dsRNA against Drosophila genes
Challenge: insulin stimulation versus unstimulated cells; dose and duration not given
Detection: 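Per-plate z-scores of phospho-ERK immunostaining normalised to YFP-tagged ERK, measured with and without insulin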
Scale: replicate 1, z-score of dpERK with insulin: higher = more active ERK per ERK-YFP after insulin

replicate 1, z-score of dpERK with insulin, by gene and reagent
Rm62: DRSC12365 1.08
Snx1 (Sorting nexin 1): DRSC00531 0.44
Z600: DRSC11317 -0.1
CG3625: DRSC00008 -0.06; DRSC00621 -0.25
SoxN (SoxNeuro): DRSC03440 0.18; DRSC21779 0.5
Hacd2 (3-hydroxyacyl-CoA dehydratase 2): DRSC03181 0.23
Hr96 (Hormone receptor-like in 96): DRSC16707 -0.02
Dhc16F (Dynein heavy chain at 16F): DRSC20242 0.99
CG31031 (retired record): DRSC13964 -0.41
cta (concertina): DRSC03769 0.45
Vmat (Vesicular monoamine transporter): DRSC06961 0.01; DRSC06962 -0.08; DRSC22223 -0.69
EMC4 (ER membrane protein complex subunit 4): DRSC11638 -0.13
CG8519: DRSC10985 -0.18
CG32081: DRSC09861 0.5
CG17650: DRSC00510 0.03
pdm2 (POU domain protein 2): DRSC02496 -0.42; DRSC02497 2.42; DRSC03587 0.18
Ih (I[[h]] channel): DRSC05477 -0.4; DRSC07445 -0.06; DRSC22956 -2.79

Sorted by “replicate 1, z-score of dpERK with insulin” (ascending): 5 of the entries above
gene	DRSC id	replicate 1, z-score of dpERK with insulin
Vmat (Vesicular monoamine transporter)	DRSC22223	-0.69
EMC4 (ER membrane protein complex subunit 4)	DRSC11638	-0.13
Vmat (Vesicular monoamine transporter)	DRSC06962	-0.08
Vmat (Vesicular monoamine transporter)	DRSC06961	0.01
cta (concertina)	DRSC03769	0.45

Additional records:
replicate 1, z-score of dpERK with insulin, by gene and reagent
CG14562: DRSC11723 -0.1
CG12608: DRSC19472 0.74
RpL7 (Ribosomal protein L7): DRSC03417 -3.19
CG31269: DRSC15744 -0.26
danr (distal antenna-related): DRSC14651 0.35
hay (haywire): DRSC11354 1.1
CG8065: DRSC10959 0.74
Wwox (WW domain containing oxidoreductase): DRSC03030 -0.1; DRSC22872 1.89
CG14641: DRSC12227 2.32
CG5828: DRSC02900 0.75
Abl (Abl tyrosine kinase): DRSC09661 0.07
AANATL4 (Arylalkylamine N-acetyltransferase-like 4): DRSC06774 0.34
CG32833: DRSC04596 -0.26
TwdlX (TweedleX): DRSC19151 -0.66
mi (minus): DRSC04498 -2.13
Adh + Adhr: DRSC01862 0.26; DRSC01863 1.09
CG31454: DRSC14365 0.34; DRSC22801 0.16
CG9147: DRSC03147 -0.81
CG31777: DRSC00201 0.15
CG4783: DRSC15644 -0.11
CG1542: DRSC15035 -0.06
ImpE1 (Ecdysone-inducible gene E1): DRSC11195 -0.09; DRSC11196 0.03
asRNA:CR43433 + Rbp6: DRSC09464 0.3
CG33111: DRSC14208 0.86; DRSC14444 1.2
ODA-Dnal1 (Outer dynein arm dynein axonemal light chain 1): DRSC07270 -0.14
CG1213: DRSC12191 -0.01
Tsp42Ee (Tetraspanin 42Ee): DRSC05947 -0.01
